Patent EP1991561B1, “BRANCHED MULTIMERIC PEPTIDES FOR TUMOR DIAGNOSIS AND THERAPY” (Universita' Degli Studi di Siena, priority 2006, dated 2007)
At least one compound was matched to its structure with a doubt left. Bridge positions count the residues as written; N and C are the ends. Square brackets hold non-standard residues; d marks the D form. Peptide text beside a SMILES is read from it. I, II: the chains in the order shown. βAla = NCCC(=O)O

Chains of the proteins cited; added tags and fusions are not shown.
UniProt P30989, whole entry: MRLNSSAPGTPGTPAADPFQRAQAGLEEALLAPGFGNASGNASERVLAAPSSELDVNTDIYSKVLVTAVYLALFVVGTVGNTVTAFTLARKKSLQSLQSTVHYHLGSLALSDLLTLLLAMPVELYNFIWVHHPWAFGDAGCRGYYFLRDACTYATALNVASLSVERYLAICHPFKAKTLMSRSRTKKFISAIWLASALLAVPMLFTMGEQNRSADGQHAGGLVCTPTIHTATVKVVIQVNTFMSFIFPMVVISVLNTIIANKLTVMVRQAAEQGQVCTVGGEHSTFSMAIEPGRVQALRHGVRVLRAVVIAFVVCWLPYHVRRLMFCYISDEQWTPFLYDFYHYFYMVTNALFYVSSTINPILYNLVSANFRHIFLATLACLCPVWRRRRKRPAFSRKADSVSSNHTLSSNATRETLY

Biological target: T1, NT receptors (NTR) (Homo sapiens, UniProt P30989)
T1 construct: HT29 human adenocarcinoma cell membranes, that over-express NTR; endogenous in cells; host or cells: HT29 human colon adenocarcinoma cell membranes
Assay: Inhibition of 125I-NT binding to HT29 cell membranes
Conditions: displacement of 125I-NT, HT29 human adenocarcinoma cell membranes

Structure (SMILES): CC[C@H](C)[C@H](NC(=O)[C@H](CCCNC(=N)N)NC(=O)[C@@H](N)CC(C)C)C(=O)N1CCC[C@H]1C(=O)N[C@@H](CCCNC(=N)N)C(=O)N[C@@H](Cc1ccc(O)cc1)C(=O)NCCCC[C@H](NC(=O)[C@H](Cc1ccc(O)cc1)NC(=O)[C@H](CCCNC(=N)N)NC(=O)[C@@H]1CCCN1C(=O)[C@@H](NC(=O)[C@H](CCCNC(=N)N)NC(=O)[C@@H](N)CC(C)C)[C@@H](C)CC)C(=O)NCCCC[C@H](NC(=O)[C@H](CCCCNC(=O)[C@H](Cc1ccc(O)cc1)NC(=O)[C@H](CCCNC(=N)N)NC(=O)[C@@H]1CCCN1C(=O)[C@@H](NC(=O)[C@H](CCCNC(=N)N)NC(=O)[C@@H](N)CC(C)C)[C@@H](C)CC)NC(=O)[C@H](Cc1ccc(O)cc1)NC(=O)[C@H](CCCNC(=N)N)NC(=O)[C@@H]1CCCN1C(=O)[C@@H](NC(=O)[C@H](CCCNC(=N)N)NC(=O)[C@@H](N)CC(C)C)[C@@H](C)CC)C(=O)NCCC(=O)O [scramble NT4(8-13), reference compound] (I: H-LRIPRYKK[βAla]-OH / II: H-LRIPRYK / III: H-LRIPRY / IV: H-LRIPRY; amide I:7-IV:C, I:8-II:C, II:7-III:C; N-terminus and C-terminus assumed)
- IC50: > 10 µM
